In publication PMC10565876:
No constants are given. Whether binding was seen depends on the method and setting. In cells and extracts the contact can be indirect. These calls come from enrichment with a bait or labelling near it, and not all partners need be listed. Blank lines part the entries; values can stand above or below the binder they belong to.

Key:
[1] = molecular target: myc-BirA∗-DDB1 (human (cDNA from HeLa and HEK293 cells)) (UniProt Q16531); assay: proximity labelling; BioID with myc-BirA∗-DDB1 as bait in U2OS Flp-In T-Rex cells; doxycycline, 50 μM biotin 24 h; denaturing lysis, streptavidin beads, LC-MS/MS; SILAC: bait cells heavy (R10K8), myc-BirA∗ control cells light (R0K0); enriched = H/L ratio over 2; N = 3
[2] = molecular target: GFP-DDB1 (human (cDNA from HeLa and HEK293 cells)) (UniProt Q16531); assay: affinity purification with mass spectrometry; GFP-DDB1 from U2OS Flp-In T-Rex lysate (50 mM Tris pH 7.4, NaCl, 1% Triton X-100, nuclease) on GFP-trap agarose beads, 3 h at 4 °C; SILAC: bait cells heavy (R10K8), GFP control cells light (R0K0); enriched = H/L ratio over 2; N = 3
[3] = molecular target: GFP-DDB1 (human (cDNA from HeLa and HEK293 cells)), Q16531; assay: as above; details: remark: other sources report otherwise

binding [1]: binds
binding [2]: binds
B1: WDTC1 (protein, UniProt Q8N5D0 1-677)
chain: MAKVNITRDLIRRQIKERGALSFERRYHVTDPFIRRLGLEAELQGHSGCVNCLEWNEKGDLLASGSDDQHTIVWDPLHHKKLLSMHTGHTANIFSVKFLPHAGDRILITGAADSKVHVHDLTVKETIHMFGDHTNRVKRIATAPMWPNTFWSAAEDGLIRQYDLRENSKHSEVLIDLTEYCGQLVEAKCLTVNPQDNNCLAVGASGPFVRLYDIRMIHNHRKSMKQSPSAGVHTFCDRQKPLPDGAAQYYVAGHLPVKLPDYNNRLRVLVATYVTFSPNGTELLVNMGGEQVYLFDLTYKQRPYTFLLPRKCHSSGEVQNGKMSTNGVSNGVSNGLHLHSNGFRLPESRGHVSPQVELPPYLERVKQQANEAFACQQWTQAIQLYSKAVQRAPHNAMLYGNRAAAYMKRKWDGDHYDALRDCLKAISLNPCHLKAHFRLARCLFELKYVAEALECLDDFKGKFPEQAHSSACDALGRDITAALFSKNDGEEKKGPGGGAPVRLRSTSRKDSISEDEMVLRERSYDYQFRYCGHCNTTTDIKEANFFGSNAQYIVSGSDDGSFFIWEKETTNLVRVLQGDESIVNCLQPHPSYCFLATSGIDPVVRLWNPRPESEDLTGRVVEDMEGASQANQRRMNADPLEVMLLNMGYRITGLSSGGAGASDDEDSSEGQVQCRPS

binding [3]: binds
B2: SNRNP40, Q96DI7 1-357 (protein)
chain: MIEQQKRKGPELPLVPVKRQRHELLLGAGSGPGAGQQQATPGALLQAGPPRCSSLQAPIMLLSGHEGEVYCCKFHPNGSTLASAGFDRLILLWNVYGDCDNYATLKGHSGAVMELHYNTDGSMLFSASTDKTVAVWDSETGERVKRLKGHTSFVNSCYPARRGPQLVCTGSDDGTVKLWDIRKKAAIQTFQNTYQVLAVTFNDTSDQIISGGIDNDIKVWDLRQNKLTYTMRGHADSVTGLSLSSEGSYLLSNAMDNTVRVWDVRPFAPKERCVKIFQGNVHNFEKNLLRCSWSPDGSKIAAGSADRFVYVWDTTSRRILYKLPGHAGSINEVAFHPDEPIIISASSDKRLYMGEIQ

binding [1]: binds
B3: TRPC4AP (protein, UniProt Q8TEL6 1-797)
chain: MAAAPVAAGSGAGRGRRSAATVAAWGGWGGRPRPGNILLQLRQGQLTGRGLVRAVQFTETFLTERDKQSKWSGIPQLLLKLHTTSHLHSDFVECQNILKEISPLLSMEAMAFVTEERKLTQETTYPNTYIFDLFGGVDLLVEILMRPTISIRGQKLKISDEMSKDCLSILYNTCVCTEGVTKRLAEKNDFVIFLFTLMTSKKTFLQTATLIEDILGVKKEMIRLDEVPNLSSLVSNFDQQQLANFCRILAVTISEMDTGNDDKHTLLAKNAQQKKSLSLGPSAAEINQAALLSIPGFVERLCKLATRKVSESTGTASFLQELEEWYTWLDNALVLDALMRVANEESEHNQASIVFPPPGASEENGLPHTSARTQLPQSMKIMHEIMYKLEVLYVLCVLLMGRQRNQVHRMIAEFKLIPGLNNLFDKLIWRKHSASALVLHGHNQNCDCSPDITLKIQFLRLLQSFSDHHENKYLLLNNQELNELSAISLKANIPEVEAVLNTDRSLVCDGKRGLLTRLLQVMKKEPAESSFRFWQARAVESFLRGTTSYADQMFLLKRGLLEHILYCIVDSECKSRDVLQSYFDLLGELMKFNVDAFKRFNKYINTDAKFQVFLKQINSSLVDSNMLVRCVTLSLDRFENQVDMKVAEVLSECRLLAYISQVPTQMSFLFRLINIIHVQTLTQENVSCLNTSLVILMLARRKERLPLYLRLLQRMEHSKKYPGFLLNNFHNLLRFWQQHYLHKDKDSTCLENSSCISFSYWKETVSILLNPDRQSPSALVSYIEEPYMDIDRDFTEE
